PubChem BioAssay AID1224826 | NIAID | 2016

Purpose: 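Knock-downs that raise or lower Tnf reporter signal after endotoxin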 (primary screen)
Cell system: RAW264.7 G9 macrophages from mouse bearing reporters for p65 (GFP) and the Tnf promoter (mCherry)
Reagent: siRNA pool against mouse genes, 100 nM
Timing: 16 h of LPS stimulation, after 2 days of siRNA transfection
Conditions: bacterial lipopolysaccharide (Salmonella minnesota R595), 10 ng/ml
Detection: 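Imaged Tnf reporter mCherry in nuclei, minus background, normalised per plate to the median and expressed as robust z-scores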
Scale: Tnf reporter robust z-score: higher = stronger Tnf promoter reporter signal after LPS
Hit rule: 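a well counts as active at a score of -1.3 or below (Tlr4 knock-down control median) or above 3 (raised signal); controls and wells holding fewer than 50 cells are excluded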
Calls: active = Tnf reporter clearly lowered or raised; inactive = no clear change in Tnf reporter
The deposit covers about 17,000 reagents; this is an unselected part. About 1,110 of them (6.6%) were called active. 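Active means lowered or raised reporter signal; replicate intensities are raw and not normalised per plate.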 Entries without a mark were called inactive. Reagents against one gene are numbered here. Not all columns of the deposit are shown. No sequences are given here.

With Ssr3 (GeneID 67437), what does the deposit list?
Tnf reporter robust z-score: -0.47; fewer than 50 cells in well: enough cells in well

With Capsl (GeneID 75568), what was measured?
Tnf reporter robust z-score: -0.57; fewer than 50 cells in well: enough cells in well

What did the screen give for Nans (GeneID 94181)?
Tnf reporter robust z-score: 0.41; fewer than 50 cells in well: enough cells in well

For Tmem87a (GeneID 211499), what does the deposit list?
Tnf reporter robust z-score: -0.06; fewer than 50 cells in well: enough cells in well

With Srst (GeneID 20819), what does the deposit list?
Tnf reporter robust z-score: 1.4; fewer than 50 cells in well: enough cells in well

For Aph1b (GeneID 208117), what does the deposit list?
fewer than 50 cells in well: fewer than 50 cells per well; well left out of calls

What is on record for Or14j1 (GeneID 258287)?
Tnf reporter robust z-score: 1.38; fewer than 50 cells in well: enough cells in well

Which result is listed for Ltv1 (GeneID 353258)?
Tnf reporter robust z-score: 1.18; fewer than 50 cells in well: enough cells in well

Which result is listed for Sele (GeneID 20339)?
Tnf reporter robust z-score: -0.04; fewer than 50 cells in well: enough cells in well

A few values from the list:
Result of Ssr3 (GeneID 67437) under “Tnf reporter robust z-score”: -0.47
Under “Tnf reporter robust z-score”, Ltv1 (GeneID 353258) has 1.18

The listing continues.
Which result is listed for Or8h10 (GeneID 258587)?
Tnf reporter robust z-score: -0.89; fewer than 50 cells in well: enough cells in well

Which result is listed for Mrps9 (GeneID 69527)?
Tnf reporter robust z-score: -0.26; fewer than 50 cells in well: enough cells in well

How did the screen score Mrpl47 (GeneID 74600)?
fewer than 50 cells in well: fewer than 50 cells per well; well left out of calls

With Kdelr3 (GeneID 105785), what was measured?
Tnf reporter robust z-score: 0.14; fewer than 50 cells in well: enough cells in well

For Esr2 (GeneID 13983), what does the deposit list?
Tnf reporter robust z-score: 1.38; fewer than 50 cells in well: enough cells in well

What did the screen give for Mcm3 (GeneID 17215)?
Tnf reporter robust z-score: -0.45; fewer than 50 cells in well: enough cells in well

For Hmox1 (GeneID 15368), how do the results read?
Tnf reporter robust z-score: -0.83; fewer than 50 cells in well: enough cells in well

What did the screen give for Metrnl (GeneID 210029)?
Tnf reporter robust z-score: -0.11; fewer than 50 cells in well: enough cells in well

How did the screen score Map1lc3a (GeneID 66734)?
fewer than 50 cells in well: fewer than 50 cells per well; well left out of calls

With Efhb (GeneID 211482), how do the results read?
Tnf reporter robust z-score: 1.38; fewer than 50 cells in well: enough cells in well

What is on record for Zfp101 (GeneID 22643)?
Tnf reporter robust z-score: 0.56; fewer than 50 cells in well: enough cells in well

What is on record for Mthfd1 (GeneID 108156)?
Tnf reporter robust z-score: 0.22; fewer than 50 cells in well: enough cells in well

Which result is listed for Or4f58 (GeneID 258271)?
Tnf reporter robust z-score: -0.8; fewer than 50 cells in well: enough cells in well

For Rims2 (GeneID 116838), what does the deposit list?
Tnf reporter robust z-score: 0.01; fewer than 50 cells in well: enough cells in well

For Rapgef4 (GeneID 56508) #1, how do the results read?
Tnf reporter robust z-score: 0.77; fewer than 50 cells in well: enough cells in well

How did the screen score Rapgef4 (GeneID 56508) #2?
Tnf reporter robust z-score: -2.02 (active); fewer than 50 cells in well: enough cells in well

For Ms4a2 (GeneID 14126), what does the deposit list?
Tnf reporter robust z-score: -0.83; fewer than 50 cells in well: enough cells in well

With Mtrf1l (GeneID 108853), how do the results read?
Tnf reporter robust z-score: -0.21; fewer than 50 cells in well: enough cells in well
